Data as given in article doi:10.1101/146837.
These are yes or no findings as the source states them, for the method shown. Some results given as binding are weak or reduced against the parent protein; the word gives no strength. Sequences can lack the tags named with a protein.

Molecular target: T1, Mrc1-Flag (subunit of the Mrc1-Tof1-Csm3 complex) (UniProt P25588)
T1 sequence: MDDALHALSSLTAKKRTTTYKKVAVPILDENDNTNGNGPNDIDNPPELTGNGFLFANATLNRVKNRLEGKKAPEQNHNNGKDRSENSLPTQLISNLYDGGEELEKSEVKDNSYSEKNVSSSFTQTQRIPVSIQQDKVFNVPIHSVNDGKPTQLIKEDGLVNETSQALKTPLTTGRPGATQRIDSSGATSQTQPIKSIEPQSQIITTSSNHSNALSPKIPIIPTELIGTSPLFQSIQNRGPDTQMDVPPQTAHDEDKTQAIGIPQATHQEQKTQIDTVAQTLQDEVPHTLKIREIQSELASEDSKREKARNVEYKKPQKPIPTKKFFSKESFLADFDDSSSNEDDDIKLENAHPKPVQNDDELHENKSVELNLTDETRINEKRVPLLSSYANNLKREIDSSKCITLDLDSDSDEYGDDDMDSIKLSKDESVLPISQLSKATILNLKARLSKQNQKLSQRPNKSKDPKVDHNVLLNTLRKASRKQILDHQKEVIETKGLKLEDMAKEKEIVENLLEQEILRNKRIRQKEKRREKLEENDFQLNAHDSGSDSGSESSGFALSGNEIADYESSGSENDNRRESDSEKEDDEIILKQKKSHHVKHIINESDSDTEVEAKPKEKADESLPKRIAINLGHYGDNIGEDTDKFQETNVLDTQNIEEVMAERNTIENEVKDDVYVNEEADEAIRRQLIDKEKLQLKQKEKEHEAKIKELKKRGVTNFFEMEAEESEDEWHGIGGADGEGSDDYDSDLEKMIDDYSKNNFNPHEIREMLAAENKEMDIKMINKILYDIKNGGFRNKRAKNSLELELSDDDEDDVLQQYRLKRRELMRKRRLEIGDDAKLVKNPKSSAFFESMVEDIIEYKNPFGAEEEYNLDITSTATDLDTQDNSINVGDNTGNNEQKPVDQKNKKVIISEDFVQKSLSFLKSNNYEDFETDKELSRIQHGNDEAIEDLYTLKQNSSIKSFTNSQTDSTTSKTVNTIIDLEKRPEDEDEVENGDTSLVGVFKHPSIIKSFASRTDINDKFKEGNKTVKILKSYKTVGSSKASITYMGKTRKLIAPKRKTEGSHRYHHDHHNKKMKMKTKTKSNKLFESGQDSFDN
Experiment: co-purification

B1: Tof1, untagged (subunit of the Mrc1-Tof1-Csm3 complex) (protein, UniProt P53840 1-1238)
chain: MSADLQQGTTNAADFSLTVLRARIALLATAIGGPDYTSQIDPPPYKLGDDCLACLKDLKRWFKLVDDQQKRWDVAMAVAEYRILTDDLLPILIDWENKCSLAAKLAKNNPDHEEFRNKAYYDKIALNCLQLLVLMTWPLIVTEQSSSNQITLYGELKKHQLVYKKTILSMESGKVLRAAIRLALDVIKIDRLSRTPRDNMVLKLVLNFFRNVIAIEPGEFTINTKKSMPKKGITSIDTLPPNVSMDDISLNTVISSFHKNKVFGFLLTLTSSLSKEFDQDFINIPLLEIMFYFTKDVNQELLFPRQFETGTHSKVVNKNESSSANNIVTSAGFELSKLLQKEHQMRKNVIKHTSARHSRFGGLLSIQTPDKTRLTVSGSQALVDEKIALQKLDDSKKWNKRIIKKHQSVAAEGLPNSLLNSQTGKAIFFTESNGKHFKEFINNFIDSGFNILLHSVTNYFTTEQDRMVTLEQVEYLLFFAWFVKYQLLRSKIDNSADIKQVSEALKEVTFILVSSLLRSAYDLKNWTVTHAGMIAFNELLNLVSRTKAAQEEDSTDIEFIVSRLFSDERIQLLSNLPKIGSKYSLQFMKSCIELTHSVLKVLEQYSDDKTLVIEGKSRRQKKFNISEGDITKLIEEENVDRDEALDILTSSLRSIEVNFQKVQANYMTEPVIETYINFLERFRELEDDSIKKVFSFFHRVFVQAKEQALLFRFDLIILLREMLSPDGLDRMSRSRKYVSQFSDYFLARLKKRLKKSPAWFVGLLFPPLHNSEVGFYQRYGEYNVLNNESMYAAPASQFKPIPDEEALPPSILLDMKYGVLVSTLLDDGKTELLDQLLKHITHTLDIFKSWLTVNVNAGKETVNPPNEYFTLTGVLNNDPIFKDKDYRALLLLIGYSIPRKINEPCFLPGTVEVSDLTVSCELVKKYLSTPFETPNGLPSSSYLLRVRSEKDSFSHNEQDGWEGDDDYDYNDPYIVPDDQILSKSDAAYFKDLDNNASDKLKGTKFSKGIARSKKKDKRKRRKGEAKTNLPMFGDQDDERPQTVRERHGVFSKEFISDSEDDEDLMNPIFFENETYMRWLLDKNNGQLTEDRYIQFAKFAAERMNNGGVVTGDYTSLFGGSIPSIESIRATESSSFAPDKSLISLASHVASEMSIFDVNNNNNNQLSDDDVNSESRNSLGSSQPSNSQNMFQSEVYSRKESTKRSLEASAADESDEDEEAIRLFGKKSRVVLSQGDSDD
- binding: binds

B2: His-Csm3 (subunit of the Mrc1-Tof1-Csm3 complex) (protein, UniProt Q04659 1-317)
chain: MDQDFDSLLLGFNDSDSVQKDPTVPNGLDGSVVDPTIADPTAITARKRRPQVKLTAEKLLSDKGLPYVLKNAHKRIRISSKKNSYDNLSNIIQFYQLWAHELFPKAKFKDFMKICQTVGKTDPVLREYRVSLFRDEMGMSFDVGTRETGQDLERQSPMVEEHVTSAEERPIVADSFAQDKRNVNNVDYDNDEDDDIYHLSYRNRRGRVLDERGNNETVLNNVVPPKEDLDALLKTFRVQGPVGLEENEKKLLLGWLDAHRKMEKGSMTEEDVQLIQSLEEWEMNDIEGQHTHYDLLPGGDEFGVDQDELDAMKEMGF
- binding: binds
